Data taken from the supplement of paper PMC8728848.
The other results are listed elsewhere or left out.

How the values were obtained:
Assay in all cases: glycan array binding signal (z-score within array); higher = stronger binding
Conditions in all cases: glycan notation: IUPAC condensed, linker removed
[1] = target: Fuc(a1-3)[Gal3S(b1-4)]GlcNAc
Method in brief: (§1)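 The binding signal is a Z-score computed within each array. Data were drawn from 3228 arrays in the Consortium for Functional Glycomics database, restricted to those with a known protein sequence. Scores were averaged over arrays of the same protein sequence at different concentrations or buffers, and over linkers, and negative values can be taken as non-binding.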

[2] = target: Fuc(a1-3)[Gal3S(b1-4)]GlcNAc6S
Method in brief: as §1

[3] = target: Fuc(a1-3)[GalNAc(b1-4)]GlcNAc
Method in brief: as §1

[4] = target: Fuc(a1-3)[GalNAc(b1-4)]GlcNAc6S
Method in brief: as §1

Fuc(a1-4)GlcNAc = target: Fuc(a1-4)GlcNAc
Method in brief: as §1

Fuc(b1-3)GlcNAc = target: Fuc(b1-3)GlcNAc
Method in brief: as §1

Gal(a1-2)Gal = target: Gal(a1-2)Gal
Method in brief: as §1

Gal(a1-3)Gal = target: Gal(a1-3)Gal
Method in brief: as §1

Gal(a1-3)Gal(b1-3)GlcNAc = target: Gal(a1-3)Gal(b1-3)GlcNAc
Method in brief: as §1

[5] = target: Gal(a1-3)Gal(b1-3)GlcNAc(b1-2)Man
Method in brief: as §1

[6] = target: Gal(a1-3)Gal(b1-3)GlcNAc(b1-2)Man(a1-3)[Gal(a1-3)Gal(b1-3)GlcNAc(b1-2)Man(a1-6)]Man(b1-4)GlcNAc(b1-4)GlcNAc
Method in brief: as §1

[7] = target: Gal(a1-3)Gal(b1-3)GlcNAc(b1-3)GalNAc
Method in brief: as §1

[8] = target: Gal(a1-3)Gal(b1-3)GlcNAc(b1-6)GalNAc
Method in brief: as §1

[9] = target: Gal(a1-3)Gal(b1-3)[Fuc(a1-4)]GlcNAc(b1-2)Man(a1-3)[Gal(a1-3)Gal(b1-3)[Fuc(a1-4)]GlcNAc(b1-2)Man(a1-6)]Man(b1-4)GlcNAc(b1-4)GlcNAc
Method in brief: as §1

Gal(a1-3)Gal(b1-4)Glc = target: Gal(a1-3)Gal(b1-4)Glc
Method in brief: as §1

Gal(a1-3)Gal(b1-4)GlcNAc = target: Gal(a1-3)Gal(b1-4)GlcNAc
Method in brief: as §1

[10] = target: Gal(a1-3)Gal(b1-4)GlcNAc(b1-2)Man
Method in brief: as §1

[11] = target: Gal(a1-3)Gal(b1-4)GlcNAc(b1-2)Man(a1-3)[Gal(a1-3)Gal(b1-4)GlcNAc(b1-2)Man(a1-6)]Man(b1-4)GlcNAc(b1-4)GlcNAc
Method in brief: as §1

[12] = target: Gal(a1-3)Gal(b1-4)GlcNAc(b1-3)GalNAc
Method in brief: as §1

[13] = target: Gal(a1-3)Gal(b1-4)GlcNAc(b1-6)GalNAc
Method in brief: as §1

[14] = target: Gal(a1-3)Gal(b1-4)[Fuc(a1-3)]GlcNAc
Method in brief: as §1

[15] = target: Gal(a1-3)Gal(b1-4)[Fuc(a1-3)]GlcNAc(b1-2)Man(a1-3)[Gal(a1-3)Gal(b1-4)[Fuc(a1-3)]GlcNAc(b1-2)Man(a1-6)]Man(b1-4)GlcNAc(b1-4)GlcNAc
Method in brief: as §1

Gal(a1-3)GalNAc = target: Gal(a1-3)GalNAc
Method in brief: as §1

[16] = target: Gal(a1-3)[Gal(a1-4)]Gal(b1-4)GlcNAc
Method in brief: as §1

[17] = target: Gal(a1-4)Gal(b1-3)GlcNAc(b1-2)Man(a1-3)[Gal(a1-4)Gal(b1-3)GlcNAc(b1-2)Man(a1-6)]Man(b1-4)GlcNAc(b1-4)GlcNAc
Method in brief: as §1

Gal(a1-4)Gal(b1-4)Glc = target: Gal(a1-4)Gal(b1-4)Glc
Method in brief: as §1

Gal(a1-4)Gal(b1-4)GlcNAc = target: Gal(a1-4)Gal(b1-4)GlcNAc
Method in brief: as §1

[18] = target: Gal(a1-4)Gal(b1-4)GlcNAc(b1-2)Man(a1-3)[Gal(a1-4)Gal(b1-4)GlcNAc(b1-2)Man(a1-6)]Man(b1-4)GlcNAc(b1-4)GlcNAc
Method in brief: as §1

[19] = target: Gal(a1-4)Gal(b1-4)GlcNAc(b1-3)Gal(b1-4)Glc
Method in brief: as §1

Gal(a1-4)GlcNAc = target: Gal(a1-4)GlcNAc
Method in brief: as §1

Gal(a1-6)Glc = target: Gal(a1-6)Glc
Method in brief: as §1

Gal(b1-2)Gal = target: Gal(b1-2)Gal
Method in brief: as §1

Gal(b1-3)Gal = target: Gal(b1-3)Gal
Method in brief: as §1

Gal(b1-3)Gal(b1-4)GlcNAc = target: Gal(b1-3)Gal(b1-4)GlcNAc
Method in brief: as §1

Gal(b1-3)GalNAc = target: Gal(b1-3)GalNAc
Method in brief: as §1

[20] = target: Gal(b1-3)GalNAc(a1-3)[Fuc(a1-2)]Gal(b1-4)Glc
Method in brief: as §1

[21] = target: Gal(b1-3)GalNAc(a1-3)[Fuc(a1-2)]Gal(b1-4)GlcNAc
Method in brief: as §1

Gal(b1-3)GalNAc(b1-3)Gal = target: Gal(b1-3)GalNAc(b1-3)Gal
Method in brief: as §1

[22] = target: Gal(b1-3)GalNAc(b1-3)Gal(a1-4)Gal(b1-4)Glc
Method in brief: as §1

[23] = target: Gal(b1-3)GalNAc(b1-4)Gal(b1-4)Glc
Method in brief: as §1

[24] = target: Gal(b1-3)GalNAc(b1-4)[Neu5Ac(a2-3)]Gal(b1-4)Glc
Method in brief: as §1

Gal(b1-3)GlcNAc = target: Gal(b1-3)GlcNAc
Method in brief: as §1

[25] = target: Gal(b1-3)GlcNAc(a1-3)Gal(b1-4)GlcNAc
Method in brief: as §1

[26] = target: Gal(b1-3)GlcNAc(a1-6)Gal(b1-4)GlcNAc
Method in brief: as §1

Gal(b1-3)GlcNAc(b1-2)Man = target: Gal(b1-3)GlcNAc(b1-2)Man
Method in brief: as §1

B1: SabA (Helicobacter pylori) (protein)
chain: MGSSHHHHHHSSGLVPRGSHMENLYFQGEDNGFFVSAGYQIGEAVQMVKNTGELKNLNEKYEQLSQYLNQVASLKQSIQNANNIELVNSSLNYLKSFTNNNYNSTTQSPIFNAVQAVITSVLGFWSLYAGNYFTFFVGKKVGDSGQPASVQGNPPFKTIIENCSGIENCAMDQTTYDKMKKLAEDLQAAQTNSATKGNNLCALSGCAATDSTSNPPNSTVSNALNLAQQLMDLIANTKTAMMWKNIVISGVSNTSGAITSTNYPTQYAVFNNIKAMIPILQQAVTLSQSNHTLSASLQAQATGSQTNPKFAKDIYTFAQNQKQVISYAQDIFNLFNSIPAEQYKYLEKAYLKIPNAGSTPTNPYRQVVNLNQEVQTIKNNVSYYGNRVDAALSVARDVYNLKSNQAEIVTAYNDAKTLSEEISKLPHNQVNTKDIVTLPYDKNAPAAGQSNYQINPEQQSNLNQALAAMSNNPFKKVGMISSQNNNGA
For B1, the “glycan array binding signal (z-score)” value [1] was -0.614, the “glycan array binding signal (z-score)” value [2] was -0.083 and the “glycan array binding signal (z-score)” value [3] was 1.14. For the same binder, the “glycan array binding signal (z-score)” value [4] was 0.226, the “glycan array binding signal (z-score)” value (Fuc(a1-4)GlcNAc) was 2.89 and the “glycan array binding signal (z-score)” value (Fuc(b1-3)GlcNAc) was 0.437. For the same binder, the “glycan array binding signal (z-score)” value (Gal(a1-2)Gal) was -0.173, the “glycan array binding signal (z-score)” value (Gal(a1-3)Gal) was 0.291 and the “glycan array binding signal (z-score)” value (Gal(a1-3)Gal(b1-3)GlcNAc) was -0.088. For the same binder, the “glycan array binding signal (z-score)” value [5] was -0.169, the “glycan array binding signal (z-score)” value [6] was 0.775 and the “glycan array binding signal (z-score)” value [7] was -0.328. For the same binder, the “glycan array binding signal (z-score)” value [8] was -0.66, the “glycan array binding signal (z-score)” value [9] was 0.26 and the “glycan array binding signal (z-score)” value (Gal(a1-3)Gal(b1-4)Glc) was 0.427. The “glycan array binding signal (z-score)” value (Gal(a1-3)Gal(b1-4)GlcNAc) was 0.561, the “glycan array binding signal (z-score)” value [10] was -1.32 and the “glycan array binding signal (z-score)” value [11] was 0.752. The “glycan array binding signal (z-score)” value [12] was -0.125, the “glycan array binding signal (z-score)” value [13] was -0.362 and the “glycan array binding signal (z-score)” value [14] was 0.132. For the same binder, the “glycan array binding signal (z-score)” value [15] was 0.582, the “glycan array binding signal (z-score)” value (Gal(a1-3)GalNAc) was -0.22 and the “glycan array binding signal (z-score)” value [16] was 0.53. For the same binder, the “glycan array binding signal (z-score)” value [17] was 0.082, the “glycan array binding signal (z-score)” value (Gal(a1-4)Gal(b1-4)Glc) was 0.21 and the “glycan array binding signal (z-score)” value (Gal(a1-4)Gal(b1-4)GlcNAc) was -0.05. The “glycan array binding signal (z-score)” value [18] was 0.505, the “glycan array binding signal (z-score)” value [19] was -0.081 and the “glycan array binding signal (z-score)” value (Gal(a1-4)GlcNAc) was -0.533. The “glycan array binding signal (z-score)” value (Gal(a1-6)Glc) was -0.417, the “glycan array binding signal (z-score)” value (Gal(b1-2)Gal) was -0.072 and the “glycan array binding signal (z-score)” value (Gal(b1-3)Gal) was -0.298. For the same binder, the “glycan array binding signal (z-score)” value (Gal(b1-3)Gal(b1-4)GlcNAc) was -0.637, the “glycan array binding signal (z-score)” value (Gal(b1-3)GalNAc) was -0.215 and the “glycan array binding signal (z-score)” value [20] was -0.144. For the same binder, the “glycan array binding signal (z-score)” value [21] was -0.576, the “glycan array binding signal (z-score)” value (Gal(b1-3)GalNAc(b1-3)Gal) was -0.627 and the “glycan array binding signal (z-score)” value [22] was 0.876. For the same binder, the “glycan array binding signal (z-score)” value [23] was -0.316, the “glycan array binding signal (z-score)” value [24] was -0.353 and the “glycan array binding signal (z-score)” value (Gal(b1-3)GlcNAc) was -0.315. The “glycan array binding signal (z-score)” value [25] was -0.729, the “glycan array binding signal (z-score)” value [26] was -0.324 and the “glycan array binding signal (z-score)” value (Gal(b1-3)GlcNAc(b1-2)Man) was 0.435.
